# Experimental data from PubChem BioAssay AID1487 (National Center for Advancing Translational Sciences (NCATS), 2009).
# The other results are listed elsewhere or left out. Shown are side measurements of this screen, not its main read-out; they come without a call. The list favours compounds with an active or inconclusive main result. Potencies come from curve fits of mixed quality, noted in brackets.
# Assay: qHTS Assay for Modulators of Lamin A Splicing
# Conditions: HeLa LMNA splicing GFP/RFP minigene ratio, 48 h
# In short: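 S3 HeLa cells stably expressing lamin A-EGFP splicing minigene plus DsRed2, 600 cells/well, 48 h compound exposure at 37C. Laser-scanning cytometry; analysed as GFP (500-530 nm)/RFP (575-640 nm) total intensity ratio; 0.5% DMSO vehicle.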
# [1] = measured here: RFP viability control channel
# [2] = measured here: GFP splicing reporter channel
SMILES,AC50 [1],AC50 [2]
CCc1ccc(/C=C2\Oc3cc(OS(C)(=O)=O)ccc3C2=O)cc1,"35.5 µM [rising, single point]",–
O=C(O)C1CSC(c2ccccc2Cl)N1C(=O)c1ccc(Cl)cc1 (stereo unspecified),"10 µM [falling, partial curve, poor fit]","5.62 µM [falling, partial curve, poor fit]"
O=C(CSc1nnc(C2CC2)n1Cc1ccccc1)c1cc2ccccc2o1,"11.2 µM [rising, partial curve, poor fit]",–
Cc1csc(N/N=C/c2ccc(O)c([N+](=O)[O-])c2)n1,"31.6 µM [rising, single point]",–
O=C(NCCCN1CCOCC1)c1ccc(Sc2ccc(Br)cc2)c([N+](=O)[O-])c1,"1 µM [rising, full curve, poor fit]",–
O=C1NC(=Nc2ccc(Cl)cc2)SC1Cc1cc(Cl)ccc1Cl (stereo unspecified),"35.5 µM [rising, single point]",–
COC(=O)c1ccc(OC)c(CSc2nnc(COc3cccc(C)c3)o2)c1,"31.6 µM [rising, single point]","35.5 µM [rising, single point]"
Cc1ccc(NS(=O)(=O)c2cc(C(=O)Nc3cccc(N(C)S(C)(=O)=O)c3)ccc2C)c(C)c1,"35.5 µM [rising, single point]",–
COc1cc(OC)cc(C(=O)N[C@H](C(=O)NCc2cccs2)C(C)C)c1,"0.0158 µM [rising, full curve, poor fit]",–
O=C(Nc1ccc(F)cc1)OCCN1CCN(Cc2ccccc2)CCC1=O,"35.5 µM [rising, single point]","35.5 µM [rising, single point]"
CC(C)N1CCC2(CC1)N=C(c1ccc3c(c1)OCO3)CC(c1cc(Cl)ccc1O)N2 (stereo unspecified),–,"3.16 µM [falling, single point]"
Cc1ccc(NC(=S)NCCSc2ccc(Cl)cc2)c(C)c1,–,"35.5 µM [rising, single point]"
CCCC(O)(CCC)C(=O)NN(C(=O)CCl)c1cccc(C)c1,"35.5 µM [falling, single point]",–
CC(C)CNC(=O)Nc1ccc(F)c(Cl)c1,"5.62 µM [rising, partial curve, poor fit]",–
Cc1cc(-n2c(C)cc(C(=O)CCl)c2C)no1,"22.4 µM [rising, single point]",–
O=C(Nc1cc(Cl)cc(Cl)c1)C(c1ccccc1)N1CCCCC1 (stereo unspecified),"7.94 µM [rising, partial curve]",–
CN(c1ccc(OCC(=O)Nc2nc3ccccc3s2)cc1)S(=O)(=O)c1ccccc1,"17.8 µM [rising, single point]",–
Cc1ccc2[nH]c(CSc3nnc(NC(=O)c4ccccc4F)s3)cc(=O)c2c1,"15.8 µM [falling, partial curve]","10 µM [falling, partial curve, poor fit]"
O=C(CCSCc1cccc(Cl)c1)NCc1ccc(F)cc1Cl,"35.5 µM [falling, partial curve, poor fit]",–
Cc1cccc(CCNC(=O)c2ccc(CSCc3cccc(Cl)c3)o2)c1,"12.6 µM [rising, partial curve]","12.6 µM [rising, partial curve]"

SMILES,AC50 [1],AC50 [2]
O=c1cc(CCl)nc2sc3ccccc3n12,–,"0.00501 µM [falling, full curve, poor fit]"
Cc1nn(Cc2ccccc2)c(Cl)c1/C=N/NC(=O)CNc1cccc(C(F)(F)F)c1,"20 µM [rising, partial curve, poor fit]",–
CCOc1ccc(NC(=O)c2c(Nc3ccccc3C)sc(C(=O)c3ccc(Cl)cc3)c2N)cc1,"4.47 µM [falling, single point]",–
COc1ccc(NS(=O)(=O)c2ccc(N3CCCC3)c(NC(=S)Nc3cccc(C)c3C)c2)cc1,"11.2 µM [rising, single point]",–
Cc1cccc(C2Nc3ccccc3C(=O)N2CCc2ccccc2)n1 (stereo unspecified),"7.94 µM [rising, partial curve]",–
COc1cccc(C(=O)N2CCN(C3CCC(c4ccccc4)CC3)CC2)c1 (stereo unspecified),"15.8 µM [rising, single point]",–
C/C(=C1/SC(N2CCCC2)=NC1=O)c1ccc(Br)cc1,–,"12.6 µM [falling, partial curve]"
CCOC(=O)C1(CCOc2ccccc2)CCN(Cc2cccn2-c2cccnc2)CC1,"0.708 µM [falling, full curve, poor fit]","35.5 µM [falling, partial curve, poor fit]"
COc1ccc2[nH]cc(CCNc3ccnc(-c4ccccc4C)n3)c2c1,–,"11.2 µM [falling, single point]"
Cc1cccc2c1N(C(=O)CN1C(=O)c3ccccc3C1=O)C(C)(C)c1ssc(=S)c1-2,"0.0708 µM [rising, full curve]",–
CCc1nnc(NC(=O)COc2ccc([N+](=O)[O-])cc2)s1,–,"3.98 µM [rising, full curve, poor fit]"
Cc1ccc2nc(NC(=O)C3CCCN(S(=O)(=O)c4cccnc4)C3)sc2c1 (stereo unspecified),"31.6 µM [rising, single point]",–
Nc1cc(=O)[nH]c(SCC(=O)Nc2nc3ccc([N+](=O)[O-])cc3s2)n1,–,"0.126 µM [rising, full curve, poor fit]"
COc1ccc(Cc2noc(-c3ccccc3)n2)cc1OC,"20 µM [rising, single point]",–
Cc1ccc(Cl)cc1N1CCN(Cc2nnnn2C2CCCCC2)CC1,"35.5 µM [falling, single point]",–
CCc1ccc(Sc2cc(C(=O)O)c3ccccc3n2)cc1,"0.158 µM [falling, full curve, poor fit]",–
COc1ccc(Cn2c(CO)cnc2SCc2ccc(F)cc2)cc1,–,"3.16 µM [falling, partial curve]"
Cc1cccc(-c2noc(CN(C(=O)CCc3ccccc3)C(C)C)n2)c1,"15.8 µM [rising, single point]",–
CC(C)(C)N1CC2([N+](=O)[O-])CN(C(C)(C)C)CC([N+](=O)[O-])(C1)C2,–,"0.1 µM [rising, full curve]"
COc1ccc(S(=O)(=O)N2CCSC2c2ccccc2)cc1 (stereo unspecified),"11.2 µM [rising, single point]",–

# Given bar-delimited: 3 of the compounds above.
SMILES | AC50 [1] | AC50 [2]
CCc1ccc(/C=C2\Oc3cc(OS(C)(=O)=O)ccc3C2=O)cc1 | 35.5 µM [rising, single point] | –
O=C(O)C1CSC(c2ccccc2Cl)N1C(=O)c1ccc(Cl)cc1 (stereo unspecified) | 10 µM [falling, partial curve, poor fit] | 5.62 µM [falling, partial curve, poor fit]
O=C(CSc1nnc(C2CC2)n1Cc1ccccc1)c1cc2ccccc2o1 | 11.2 µM [rising, partial curve, poor fit] | –

# Following part.

SMILES,AC50 [1],AC50 [2]
CCN1C(=O)C2C(c3ccccc3F)NC(Cc3ccc(O)cc3)(C(=O)OC)C2C1=O (stereo unspecified),"11.2 µM [rising, partial curve, poor fit]",–
Cc1ccc(CN=c2c([N+](=O)[O-])nn(-c3cccc(Cl)c3)n2O)cc1,"6.31 µM [rising, full curve, poor fit]",–
CS(=O)(=O)c1ccc2nc(NC(=O)CCN3C(=O)c4ccccc4C3=O)sc2c1,–,"0.794 µM [falling, full curve, poor fit]"
COc1ccc(/C=C2\N=C(SC)N(c3ccccc3OC)C2=O)cc1,"0.891 µM [rising, full curve]","0.0355 µM [falling, full curve, poor fit]"
CN(CCC#N)C(=O)COC(=O)c1ccccc1C(=O)c1ccc(Cl)c([N+](=O)[O-])c1,"0.0316 µM [falling, full curve, poor fit]",–
CCOc1cccc(CC(=O)NCc2ccc3c(c2)CCN3C(C)=O)c1OCC,"11.2 µM [falling, partial curve, poor fit]",–
CC(C)C(=O)Nc1ccc(C(=O)N/N=C/c2cc(Br)cc(Br)c2O)cc1,"15.8 µM [falling, partial curve]","35.5 µM [falling, single point]"
CCc1nc(SCC(=O)NNC(=O)C2CCCCC2)c2ccccc2n1,–,"0.501 µM [falling, single point]"
CN(Cc1ccccc1)c1nc(CN2CCOCC2)nc2scc(-c3ccccc3)c12,"7.08 µM [rising, single point]",–
Cc1cccc(CNc2ncnc3ccc(-c4cccc(NS(C)(=O)=O)c4)cc23)c1,"17.8 µM [falling, partial curve]","17.8 µM [falling, partial curve]"
C/C(CC(=O)Nc1ccc(Cl)c(Cl)c1)=N\NC(N)=S,"35.5 µM [falling, single point]",–
Cc1cccc(C(=O)c2c(N)sc3c2CCC(C)C3)c1 (stereo unspecified),"25.1 µM [rising, single point]",–
COc1cc(CC(=O)OCC(=O)Nc2sccc2C(N)=O)cc(OC)c1OC,–,"14.1 µM [falling, partial curve]"
COc1ccc(-c2cc(-c3c(O)c(OC)c4occc4c3OC)[nH]n2)cc1,"14.1 µM [rising, single point]","17.8 µM [rising, partial curve, poor fit]"
COCCNS(=O)(=O)c1ccc(-c2ccc(S(=O)(=O)NCCOC)cc2)cc1,"0.501 µM [falling, full curve]",–
CCN(CC)S(=O)(=O)c1ccc(NC(=O)c2ccc(N(C)S(C)(=O)=O)cc2)cc1,"6.31 µM [rising, full curve]","6.31 µM [rising, partial curve]"
C=CCCCCCCCCC(=O)O,"0.000794 µM [rising, full curve, poor fit]","0.00126 µM [rising, full curve, poor fit]"
CCCOc1cccc(NC(=O)c2c(-c3ccccc3)noc2C)c1,"35.5 µM [rising, single point]",–
N#Cc1ccccc1NC(=O)C(=O)NCCc1csc2nc(-c3cccc(F)c3)nn12,"1.12 µM [falling, full curve, poor fit]",–
